According to US8742173B2, “Phenolic hydrazone macrophage migration inhibitory factor inhibitors” (The Feinstein Institute for Medical Research, priority 2006, dated 2014):
Entries after “also recorded” stand apart in the source; their conditions may differ. For at least one compound, name, drawing or mass did not settle the structure.

How the values were obtained:
RAW 267.4 macrophages = assay: TNF secretion from LPS-treated RAW 267.4 macrophages (ELISA); assay type: cell-based; conditions: 0.01-100 μM, 30 min prior to LPS, 16 h incubation
Swiss Webster male mice = assay: Carrageenan air pouch model, leukocyte recruitment; assay type: in vivo
Method: Air pouches were made according to standard procedures (Garcia-Ramallo et al., 2002) on Swiss Webster male mice (25-30 g) by injecting sterile air s.c. on day 0 (6 ml) and day 3 (3 ml). On day 6, animals were treated with vehicle (350 μl of 20% DMSO) or compound 7 (7 mg/kg) either intraperitoneal (i.p.) or gavage (oral) as indicated. After 15 min, the animals were challenged by injecting 1 ml 1% carrageenan (in PBS) into the air pouch cavity. Five hrs after carrageenan injection the animals were sacrificed, the pouches washed with PBS, exudate collected, and the total number of infiltrating cells quantitated.
In another experiment, air pouches were made as above. On day 6, animals were treated with vehicle (350 μl of 20% DMSO) or compound 7 (7 mg/kg, gavage) at the indicated times prior to sacrificing and cell harvesting. In all cases, 1% carrageenan was injected into the air pouch cavity 5 hrs before sacrificing.

COc1ccc(NN=Cc2ccc(O)c(F)c2)cc1 [Compound 7]
inhibition of LPS-induced TNF release (RAW 267.4 macrophages): inhibits TNF secretion; also recorded: dose-dependently suppressed; also recorded: dose-dependently did inhibit | leukocyte recruitment (Swiss Webster male mice; 7 mg/kg gavage, 5.25 hours before harvesting): significant reduction | leukocyte recruitment (Swiss Webster male mice; 7 mg/kg gavage, 7 hours before harvesting): significant reduction | leukocyte recruitment (Swiss Webster male mice; 7 mg/kg gavage, 9 hours before harvesting): not | leukocyte recruitment (Swiss Webster male mice; 7 mg/kg i.p., 15 min before carrageenan, harvest 5 hrs later): significant reduction | leukocyte recruitment (Swiss Webster male mice; 7 mg/kg oral (gavage), 15 min before carrageenan, harvest 5 hrs later): significant reduction
